# Laboratory results reported in the supplement of paper PMC9135407.
# Values joined by “and” are separate entries in the source; they are usually repeats but may differ in a detail not shown here. Identical values can stand only once. Counter-ions that a name gives are not always drawn. ± gives the standard deviation of the averaged measurements. The list shows a part of the results. Baselines shift from plate to plate; read single values as rough.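 Culture-activated primary human stellate myofibroblasts, where regained lipid droplets signal inactivation. Value: share of Hoechst-counted cells above a per-plate Bodipy cutoff, in duplicate wells, with DMSO negative and nortriptyline positive controls on each plate. Hits: a control-normalized score above the plate's top-tenth-percentile nortriptyline wells, or one of a plate's three best wells. Final well concentrations are not given.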
# System: primary human hepatic stellate cells (donor 1)
# Assay: percent Bodipy-positive cells; higher = more lipid droplet accumulation
# Settings: 48 h
# [1] = library stock concentration: 10 mM
# [2] = library stock concentration: 1 mM
# [3] = library stock concentration: 80 uM
# [4] = library stock concentration: 400 uM
# [5] = library stock concentration: 2 mM
# [6] = library stock concentration: 3.33 mM
smiles,measurement,setting,value
Nn1nnc2ccccc21 [1-Aminobenzotriazole],percent Bodipy-positive cells,[1],33.6 ± 2.6%
CCCCC[C@H](O)/C=C/[C@H]1CCC(=O)[C@@H]1C/C=C\CCCC(=O)O [11-deoxy Prostaglandin E2],percent Bodipy-positive cells,[2],27.4 ± 0.92%
CC[C@H](Nc1ncnc2[nH]cnc12)c1nc2cccc(F)c2c(=O)n1-c1ccccc1,percent Bodipy-positive cells,[3],9.46 ± 2.3%
same,percent Bodipy-positive cells,[4],6.2 ± 1.8%
same,percent Bodipy-positive cells,[5],3.57 ± 0.57%
same,percent Bodipy-positive cells,[1],8.96 ± 0.46%
"CC[C@H](Nc1ncnc2[nH]cnc12)c1nc2cccc(F)c2c(=O)n1-c1ccccc1 [CAL-101 (Idelalisib, GS-1101)]",percent Bodipy-positive cells,[6],12 ± 2.4%
same,percent Bodipy-positive cells,[1],16.6 ± 5.2%
COc1cc2c(N3CCN(C(=O)Nc4ccc(OC(C)C)cc4)CC3)ncnc2cc1OCCCN1CCCCC1,percent Bodipy-positive cells,[1],99.461 ± 0.037%
CCCCCCCCCCCCCC(=O)N[C@H](CO)[C@H](O)c1ccc([N+](=O)[O-])cc1,percent Bodipy-positive cells,[2],7.27 ± 0.62%
CCCCCCCOC(=O)Cc1c(C)n(C(=O)c2ccc(Cl)cc2)c2ccc(OC)cc12 [Indomethacin heptyl ester],percent Bodipy-positive cells,[2],7.23 ± 0.47%
Nc1nccc(-c2c(-c3ccc(F)cc3)ncn2C2CCNCC2)n1,percent Bodipy-positive cells,[6],27.7 ± 3.7%
COc1ccccc1CNCCCCCCNCCCCCCCCNCCCCCCNCc1ccccc1OC [Methoctramine tetrahydrochloride],percent Bodipy-positive cells,[1],98.9 ± 1.5%
CC(C)c1noc(N2CCC(COc3ccc(-c4ccc(S(C)(=O)=O)cc4)nc3)CC2)n1,percent Bodipy-positive cells,[6],13.5 ± 2.1%
same,percent Bodipy-positive cells,[1],36.6 ± 5.2%
CCC(=O)Nc1cccc(Oc2nc(Nc3ccc(N4CCN(C)CC4)cc3OC)ncc2Cl)c1,percent Bodipy-positive cells,[1],95.3 ± 2.2%
O=C(NC1CCNCC1)c1n[nH]cc1NC(=O)c1c(Cl)cccc1Cl,percent Bodipy-positive cells,[3],46.3 ± 9.4%
same,percent Bodipy-positive cells,[4],41.3% and 57.2%
same,percent Bodipy-positive cells,[5],54% and 63.8%
same,percent Bodipy-positive cells,[6],45.3 ± 11%
same,percent Bodipy-positive cells,[1],69.4% and 60.4% and 73.6%
CNC(=O)c1c(I)c(NC(C)=O)c(I)c(C(=O)O)c1I,percent Bodipy-positive cells,[1],53.9 ± 10%
C[C@H](NC(=O)/C(C#N)=C/c1ccc(O)c(O)c1)c1ccccc1 [Tyrphostin AG 835],percent Bodipy-positive cells,[1],12.1 ± 5.1%
"C[C@H](NC(=O)/C(C#N)=C/c1ccc(O)c(O)c1)c1ccccc1 [Tyrphostin B44, (+) enantiomer]",percent Bodipy-positive cells,[1],6.46 ± 1.7%
"O=S(=O)(NCCNC/C=C/c1ccc(Br)cc1)c1cccc2cnccc12 [H-89, Dihydrochloride]",percent Bodipy-positive cells,[6],22.8 ± 6%
O=S(=O)(NCCNC/C=C/c1ccc(Br)cc1)c1cccc2cnccc12,percent Bodipy-positive cells,[3],14 ± 4.8%
same,percent Bodipy-positive cells,[4],9.63 ± 0.64%
same,percent Bodipy-positive cells,[5],19.57 ± 0.043%
O[C@@H](COc1cccc2ncccc12)CN1CCN(C2c3ccccc3[C@@H]3[C@H](c4ccccc42)C3(F)F)CC1 (stereo not given in full),percent Bodipy-positive cells,[6],28.9 ± 5.2%
same,percent Bodipy-positive cells,[1],83.5 ± 10%
COc1ccc(-c2coc3cc(O)cc(O)c3c2=O)cc1 [Biochanin A],percent Bodipy-positive cells,[6],19.8 ± 14%
same,percent Bodipy-positive cells,[1],9.51 ± 1.1%
CN(CCCOc1ccc(Cc2ccccc2)cc1)CCC(=O)O,percent Bodipy-positive cells,[1],19 ± 1.5%
CN1CCC(CNc2ccc3ncc(-c4cccc(OC(F)(F)F)c4)n3n2)CC1,percent Bodipy-positive cells,[5],88.56 ± 0.8%
CC(C)(C)c1cc(/C=C(\C#N)C(N)=S)cc(C(C)(C)C)c1O [Tyrphostin AG 879],percent Bodipy-positive cells,[6],13 ± 0.73%
same,percent Bodipy-positive cells,[1],20.6% and 43.9%
O=C(O)CCC/C=C/C[C@@H]1[C@@H](/C=C/[C@@H](O)COc2cccc(C(F)(F)F)c2)[C@H](O)C[C@@H]1O [5-trans Fluprostenol],percent Bodipy-positive cells,[2],19.8 ± 0.25%
CCC(=O)NCC[C@@H]1CCc2ccc3c(c21)CCO3 [Ramelteon],percent Bodipy-positive cells,[6],28.45 ± 0.24%
same,percent Bodipy-positive cells,library stock concentration: 7.7 mM,16.9 ± 6.3%
Cc1cc(CS(=O)(=O)c2ccccc2)cc(OCc2ccc(CN3CCC[C@@H]3CO)cc2)c1,percent Bodipy-positive cells,[1],95.81 ± 0.77%
COC1=CC(=O)C[C@@H](C)[C@]12Oc1c(Cl)c(OC)cc(OC)c1C2=O [Griseofulvin],percent Bodipy-positive cells,,12.5 ± 0.58%
same,percent Bodipy-positive cells,[6],7.79 ± 1.1%
same,percent Bodipy-positive cells,library stock concentration: 5.7 mM,3.14 ± 0.45%
CN(C)CCC(c1ccc(Cl)cc1)c1ccccn1 (stereo not given) [Chlorpheniramine Maleate],percent Bodipy-positive cells,[6],24.4 ± 2.5%
same,percent Bodipy-positive cells,[1],40.6 ± 9.1%
CN(C)CCC(c1ccc(Cl)cc1)c1ccccn1 (stereo not given) [Chlorpheniramine maleate],percent Bodipy-positive cells,,52 ± 2.5%
same,percent Bodipy-positive cells,library stock concentration: 7.3 mM,23.1 ± 1.6%
CN(C)CCC(c1ccc(Cl)cc1)c1ccccn1 (stereo not given) [Chlorpheniramine],percent Bodipy-positive cells,[1],32.1 ± 1.2%
CC[C@]1(O)C[C@H]2CN(CCc3c([nH]c4ccccc34)[C@@](C(=O)OC)(c3cc4c(cc3OC)N(C)[C@H]3[C@@](O)(C(N)=O)[C@H](O)[C@]5(CC)C=CCN6CC[C@]43[C@@H]65)C2)C1.O=S(=O)(O)O,percent Bodipy-positive cells,library stock concentration: 9.7 mM,97.36 ± 0.4%
COc1cc(N)c(Cl)cc1C(=O)NC1CCN(CCCOc2ccc(F)cc2)CC1OC (stereo not given) [Cisapride],percent Bodipy-positive cells,,54.9 ± 2.6%
same,percent Bodipy-positive cells,[1],34.1 ± 14%
C[C@H](O)C(=O)C1=Nc2c(nc(N)[nH]c2=O)NC1 [Sepiapterin],percent Bodipy-positive cells,[1],18.9 ± 0.2%
CCCCCCCCC=CCCCCCCCCCCCC(N)=O [13-Docosenamide],percent Bodipy-positive cells,[2],7.55 ± 3%
CN1Cc2sccc2C(c2ccc(O)c(O)c2)C1 (stereo not given),percent Bodipy-positive cells,[1],36 ± 4.7%
COc1ccccc1N1CCN(CCN2C(=O)CC3(CCCC3)CC2=O)CC1,percent Bodipy-positive cells,[6],5.7 ± 0.7%
same,percent Bodipy-positive cells,[1],14.2 ± 0.21%
CCN(CC)CCCCC1CCN(CC(=O)N2c3ccccc3C(=O)Nc3cccnc32)CC1,percent Bodipy-positive cells,[1],25.6 ± 3.8%
OCC(O)CN1CCN(c2ccccc2)CC1 (stereo not given) [Dropropizine],percent Bodipy-positive cells,[6],8.36 ± 1.7%
same,percent Bodipy-positive cells,[1],23.7% and 28.4%
NC1=N[C@@]2(c3cc(NC(=O)c4ccc(F)cn4)ccc3F)COC[C@H]2CS1,percent Bodipy-positive cells,[6],15.5 ± 7.4%
same,percent Bodipy-positive cells,[1],44.1 ± 2.4%
CCCCC[C@H](O)/C=C/[C@@H]1[C@H]2C/C(=C/CCCC(=O)O)O[C@H]2C[C@H]1O [Prostaglandin I2],percent Bodipy-positive cells,[2],16.1 ± 15%
CCCCC[C@H](O)/C=C/[C@@H]1[C@H]2C/C(=C/CCCC(=O)O)O[C@H]2C[C@H]1O [Prostaglandin I2 (sodium salt)],percent Bodipy-positive cells,[2],13 ± 0.48%
COc1ccc(COc2cc3oc(=O)c4cc(C(C)O)ccc4c3cc2OC)cc1 (stereo not given),percent Bodipy-positive cells,[3],6.7 ± 2.2%
same,percent Bodipy-positive cells,[4],8.44 ± 0.22%
same,percent Bodipy-positive cells,[5],6.97 ± 0.74%
same,percent Bodipy-positive cells,[1],46.2 ± 24%
COc1ccc(COc2cc3oc(=O)c4cc(C(C)O)ccc4c3cc2OC)cc1 (stereo not given) [Palomid 529 (P529)],percent Bodipy-positive cells,[6],12.8 ± 2.2%
same,percent Bodipy-positive cells,[1],27.6 ± 2.1%
O=C(O)c1ccccc1Nc1cccc(OCc2ccc3ccccc3n2)c1,percent Bodipy-positive cells,[1],11 ± 1.4%
O=C(O)c1ccccc1Nc1cccc(OCc2ccc3ccccc3n2)c1 [SR 2640 hydrochloride],percent Bodipy-positive cells,[1],9.72 ± 5.6%
O=C(O[C@@H]1C[C@@H]2C[C@H]3C[C@H](C1)N2CC3=O)c1c[nH]c2ccccc12,percent Bodipy-positive cells,library stock concentration: 10.4 mM,9.71 ± 2%
O=C(O[C@@H]1C[C@@H]2C[C@H]3C[C@H](C1)N2CC3=O)c1c[nH]c2ccccc12 [Dolasetron],percent Bodipy-positive cells,library stock concentration: 6.2 mM,7.05 ± 1.3%
CC(=O)NCCc1c(Cc2ccccc2)[nH]c2ccccc12 [Luzindole],percent Bodipy-positive cells,[1],6.34 ± 1.1%
CC(C)(C)NC(=O)[C@@H]1CN(Cc2cccnc2)CCN1C[C@@H](O)C[C@@H](Cc1ccccc1)C(=O)N[C@H]1c2ccccc2C[C@H]1O,percent Bodipy-positive cells,[1],7.96 ± 1.5%
